# Measured values published in patent US20100278806A1, “Composition Containing Arazyme for the Prevention and Treatment of Arthritis” (Insect Biotech Co., Ltd., priority 2008, published 2010).
# For at least one compound, name, drawing or mass did not settle the structure.
# Columns and labels:
# Assay type in all cases: in vivo, NewZealand White Rabbits
# TNF-α = test: Measurement of TNF-α in serum by ELISA, osteoarthritis-induced rabbits; settings: autopsy at 12 weeks of administration in drinking water, arazyme 250 mg/kg, celecoxib 10 mg/kg/day, no statistical significance
# Excerpt: (§1) It is known that not only repetitive joint damage but also a lesion similar to that of human degenerative osteoarthritis is induced in a rabbit model with knee meniscus removed. A method for tearing the cranial cruciate ligament is used as a method for inducing osteoarthritis in rabbits (Hulth A. et al., Acta Orthp Scand. 41:522-530, 1970). In the present experiment, the cranial cruciate ligament of a rabbit was torn to induce the instability of joints and simultaneously medial meniscus was removed to induce osteoarthritis.
# (§2) The cranial cruciate ligaments of right knees of all the experimental animals were torn to induce the instability of joints and medial meniscuses were simultaneously removed to induce osteoarthritis. […]
# (§3) In order to induce osteoarthritis effectively, all the animals in the experimental group were subjected to a forced exercise task using a treadmill for 5 min every day from the day 4 after the induction surgery of osteoarthritis, and arthrography was performed on both knee joints at 4 weeks, 8 weeks, and 12 weeks after administration of the test material to measure the changes of joint surface. An autopsy was performed at 12 weeks after administration of the test material to conduct serologic tests of blood samples through collection of blood and control effects of the test material on osteoarthritis were assessed through a histopathological test. […]
# [1] = tested on: joint cartilage of osteoarthritis-induced right knee; test: Histopathological observation of joint cartilage (H&E, toluidine blue, azan), osteoarthritis-induced rabbits; settings: autopsy at 12 weeks, optical microscope
# Excerpt: as §1
# The cranial cruciate ligaments of right knees of all the experimental animals were torn to induce the instability of joints and medial meniscuses were simultaneously removed to induce osteoarthritis. Sharm-operations were performed on the left knees to be used as a control against administration of a test material. Tear of cranial cruciate ligament and medial meniscus removal were performed as follows. The animals were fasted for 6 to 12 hours prior to the operation and only drinking water was supplied. Subsequently, an anesthetic of Xylazine (Rompun, Bayer Korea Ltd.) at 1.25 ml/6 mg/kg and Zoletil50 (Virbac) at 0.2 ml/10 mg/kg was intramuscularly injected to anesthetize the animals. […]
# as §3
# [2] = tested on: joint cartilage of osteoarthritis-induced right knee; test: Visual observation of the changes of joint cartilage, osteoarthritis-induced rabbits; settings: autopsy at 12 weeks
# Excerpt: as §1, §2, §3
compound,measurement,setting,value
"Cc1ccc(-c2cc(C(F)(F)F)nn2-c2ccc(S(N)(=O)=O)cc2)cc1 [Celecoxib, reference compound]",expression of TNF-α in serum compared with negative control group,TNF-α,observed at a lower level
same,"damage of joint cartilage, hematoxylin-eosin staining",[1],most of the vertical fissures were formed into sites corresponding to the mid zones from the surface
same,"loss of collagen, azan staining",[1],weak loss of collagen
same,"loss of proteoglycan, toluidine blue staining",[1],proteoglycan was lost into the mid zone
same,"cartilage damage of femoral joint surface, visual observation","[2]; arazyme 250 mg/kg, celecoxib 10 mg/kg/day",less cartilage damage was generally shown than in the negative control group
same,"lesions of tibia joint surface, visual observation",[2]; positive control group compared with test material group,generally similar lesions were observed in the groups
